Assay [1] has as its target Carbamoyl-phosphate synthetase 2, Aspartate transcarbamoylase, and Dihydroorotase (CAD), endogenous (human (endogenous in KLE and ES2)) (UniProt P27708). In words: co-IP.
The target of assay [2] is SMARCA4 (also known as BRG1), endogenous (human (endogenous in ES2)) (UniProt P51532). In words: co-IP.
In assay [3] the target is Carbamoyl-phosphate synthetase 2, Aspartate transcarbamoylase, and Dihydroorotase (CAD), endogenous (human (endogenous in KLE and ES2)) (UniProt P27708). In words: co-IP. The source holds these as a separate data set.
For assay [4], the target named is SMARCA4 (also known as BRG1), endogenous (human (endogenous in ES2)) (UniProt P51532). In words: co-IP. This is another data set of the same source.
Assay [5] deals with ARID1A protein (BAF250a), endogenous (human (endogenous in KLE and ES2)) (UniProt O14497). In words: co-IP.
For assay [6] the target is unchanged. In words: co-IP. The source holds these as a separate data set.
Assay [7] has as its target T1, GST-ATCase domain of CAD (1823-2225) (UniProt P27708).
T1 sequence: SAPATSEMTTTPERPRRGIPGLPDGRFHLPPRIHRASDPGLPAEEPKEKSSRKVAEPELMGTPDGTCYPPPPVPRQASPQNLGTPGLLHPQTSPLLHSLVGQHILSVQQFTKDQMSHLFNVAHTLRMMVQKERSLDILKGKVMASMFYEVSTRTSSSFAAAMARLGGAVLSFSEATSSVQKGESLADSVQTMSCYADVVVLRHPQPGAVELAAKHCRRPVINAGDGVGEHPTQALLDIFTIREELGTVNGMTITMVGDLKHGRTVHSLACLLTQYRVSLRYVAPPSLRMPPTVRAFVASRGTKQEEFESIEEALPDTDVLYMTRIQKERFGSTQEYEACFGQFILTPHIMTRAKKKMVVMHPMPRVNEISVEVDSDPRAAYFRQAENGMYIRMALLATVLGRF
In words: pull-down.

Amino acid sequences for entries named in this document (tags omitted). A change or cut given only in a name is not applied to a line headed by its entry.
UniProt P51532: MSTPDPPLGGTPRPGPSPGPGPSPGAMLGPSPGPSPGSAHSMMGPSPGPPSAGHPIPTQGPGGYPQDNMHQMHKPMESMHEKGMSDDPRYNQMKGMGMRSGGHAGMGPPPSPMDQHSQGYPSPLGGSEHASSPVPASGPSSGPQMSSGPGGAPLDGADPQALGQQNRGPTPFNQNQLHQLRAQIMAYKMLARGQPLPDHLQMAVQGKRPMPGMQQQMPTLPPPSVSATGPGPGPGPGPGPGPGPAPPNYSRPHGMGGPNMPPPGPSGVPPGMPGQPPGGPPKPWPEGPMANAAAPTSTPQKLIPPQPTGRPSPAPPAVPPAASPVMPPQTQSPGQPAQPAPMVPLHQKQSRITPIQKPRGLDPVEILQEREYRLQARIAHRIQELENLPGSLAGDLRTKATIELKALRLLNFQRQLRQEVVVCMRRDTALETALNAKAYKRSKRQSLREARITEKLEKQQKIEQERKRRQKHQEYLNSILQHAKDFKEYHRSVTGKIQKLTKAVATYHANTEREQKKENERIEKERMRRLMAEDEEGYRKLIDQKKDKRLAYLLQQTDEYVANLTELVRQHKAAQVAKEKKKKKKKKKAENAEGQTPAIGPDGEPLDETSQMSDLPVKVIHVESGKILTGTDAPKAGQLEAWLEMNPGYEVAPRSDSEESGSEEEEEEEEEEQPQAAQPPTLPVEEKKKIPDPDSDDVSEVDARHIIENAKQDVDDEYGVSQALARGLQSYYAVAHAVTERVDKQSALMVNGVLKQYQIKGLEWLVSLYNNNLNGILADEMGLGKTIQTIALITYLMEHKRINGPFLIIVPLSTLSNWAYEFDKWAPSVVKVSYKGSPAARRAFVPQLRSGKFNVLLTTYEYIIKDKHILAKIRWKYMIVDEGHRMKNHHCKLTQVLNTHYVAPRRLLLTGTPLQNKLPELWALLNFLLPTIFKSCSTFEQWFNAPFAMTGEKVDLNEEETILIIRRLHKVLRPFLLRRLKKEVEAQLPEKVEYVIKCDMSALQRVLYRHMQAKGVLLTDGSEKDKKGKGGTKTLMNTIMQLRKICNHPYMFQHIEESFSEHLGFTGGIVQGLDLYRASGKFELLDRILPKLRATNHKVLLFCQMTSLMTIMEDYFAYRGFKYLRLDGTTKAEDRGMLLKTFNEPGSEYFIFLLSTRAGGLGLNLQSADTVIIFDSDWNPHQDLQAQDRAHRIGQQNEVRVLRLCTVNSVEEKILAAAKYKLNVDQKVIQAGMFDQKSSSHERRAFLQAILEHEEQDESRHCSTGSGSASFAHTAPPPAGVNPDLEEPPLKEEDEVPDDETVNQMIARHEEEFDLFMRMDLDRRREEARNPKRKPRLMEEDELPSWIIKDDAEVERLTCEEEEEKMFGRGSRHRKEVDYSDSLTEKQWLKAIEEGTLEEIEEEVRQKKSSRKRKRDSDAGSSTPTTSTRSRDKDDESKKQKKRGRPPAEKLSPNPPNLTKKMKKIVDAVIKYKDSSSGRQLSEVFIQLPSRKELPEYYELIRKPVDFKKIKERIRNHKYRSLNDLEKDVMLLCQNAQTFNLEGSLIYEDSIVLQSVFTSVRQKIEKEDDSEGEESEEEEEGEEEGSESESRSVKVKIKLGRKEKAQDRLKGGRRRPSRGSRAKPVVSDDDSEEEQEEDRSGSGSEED
UniProt O14497: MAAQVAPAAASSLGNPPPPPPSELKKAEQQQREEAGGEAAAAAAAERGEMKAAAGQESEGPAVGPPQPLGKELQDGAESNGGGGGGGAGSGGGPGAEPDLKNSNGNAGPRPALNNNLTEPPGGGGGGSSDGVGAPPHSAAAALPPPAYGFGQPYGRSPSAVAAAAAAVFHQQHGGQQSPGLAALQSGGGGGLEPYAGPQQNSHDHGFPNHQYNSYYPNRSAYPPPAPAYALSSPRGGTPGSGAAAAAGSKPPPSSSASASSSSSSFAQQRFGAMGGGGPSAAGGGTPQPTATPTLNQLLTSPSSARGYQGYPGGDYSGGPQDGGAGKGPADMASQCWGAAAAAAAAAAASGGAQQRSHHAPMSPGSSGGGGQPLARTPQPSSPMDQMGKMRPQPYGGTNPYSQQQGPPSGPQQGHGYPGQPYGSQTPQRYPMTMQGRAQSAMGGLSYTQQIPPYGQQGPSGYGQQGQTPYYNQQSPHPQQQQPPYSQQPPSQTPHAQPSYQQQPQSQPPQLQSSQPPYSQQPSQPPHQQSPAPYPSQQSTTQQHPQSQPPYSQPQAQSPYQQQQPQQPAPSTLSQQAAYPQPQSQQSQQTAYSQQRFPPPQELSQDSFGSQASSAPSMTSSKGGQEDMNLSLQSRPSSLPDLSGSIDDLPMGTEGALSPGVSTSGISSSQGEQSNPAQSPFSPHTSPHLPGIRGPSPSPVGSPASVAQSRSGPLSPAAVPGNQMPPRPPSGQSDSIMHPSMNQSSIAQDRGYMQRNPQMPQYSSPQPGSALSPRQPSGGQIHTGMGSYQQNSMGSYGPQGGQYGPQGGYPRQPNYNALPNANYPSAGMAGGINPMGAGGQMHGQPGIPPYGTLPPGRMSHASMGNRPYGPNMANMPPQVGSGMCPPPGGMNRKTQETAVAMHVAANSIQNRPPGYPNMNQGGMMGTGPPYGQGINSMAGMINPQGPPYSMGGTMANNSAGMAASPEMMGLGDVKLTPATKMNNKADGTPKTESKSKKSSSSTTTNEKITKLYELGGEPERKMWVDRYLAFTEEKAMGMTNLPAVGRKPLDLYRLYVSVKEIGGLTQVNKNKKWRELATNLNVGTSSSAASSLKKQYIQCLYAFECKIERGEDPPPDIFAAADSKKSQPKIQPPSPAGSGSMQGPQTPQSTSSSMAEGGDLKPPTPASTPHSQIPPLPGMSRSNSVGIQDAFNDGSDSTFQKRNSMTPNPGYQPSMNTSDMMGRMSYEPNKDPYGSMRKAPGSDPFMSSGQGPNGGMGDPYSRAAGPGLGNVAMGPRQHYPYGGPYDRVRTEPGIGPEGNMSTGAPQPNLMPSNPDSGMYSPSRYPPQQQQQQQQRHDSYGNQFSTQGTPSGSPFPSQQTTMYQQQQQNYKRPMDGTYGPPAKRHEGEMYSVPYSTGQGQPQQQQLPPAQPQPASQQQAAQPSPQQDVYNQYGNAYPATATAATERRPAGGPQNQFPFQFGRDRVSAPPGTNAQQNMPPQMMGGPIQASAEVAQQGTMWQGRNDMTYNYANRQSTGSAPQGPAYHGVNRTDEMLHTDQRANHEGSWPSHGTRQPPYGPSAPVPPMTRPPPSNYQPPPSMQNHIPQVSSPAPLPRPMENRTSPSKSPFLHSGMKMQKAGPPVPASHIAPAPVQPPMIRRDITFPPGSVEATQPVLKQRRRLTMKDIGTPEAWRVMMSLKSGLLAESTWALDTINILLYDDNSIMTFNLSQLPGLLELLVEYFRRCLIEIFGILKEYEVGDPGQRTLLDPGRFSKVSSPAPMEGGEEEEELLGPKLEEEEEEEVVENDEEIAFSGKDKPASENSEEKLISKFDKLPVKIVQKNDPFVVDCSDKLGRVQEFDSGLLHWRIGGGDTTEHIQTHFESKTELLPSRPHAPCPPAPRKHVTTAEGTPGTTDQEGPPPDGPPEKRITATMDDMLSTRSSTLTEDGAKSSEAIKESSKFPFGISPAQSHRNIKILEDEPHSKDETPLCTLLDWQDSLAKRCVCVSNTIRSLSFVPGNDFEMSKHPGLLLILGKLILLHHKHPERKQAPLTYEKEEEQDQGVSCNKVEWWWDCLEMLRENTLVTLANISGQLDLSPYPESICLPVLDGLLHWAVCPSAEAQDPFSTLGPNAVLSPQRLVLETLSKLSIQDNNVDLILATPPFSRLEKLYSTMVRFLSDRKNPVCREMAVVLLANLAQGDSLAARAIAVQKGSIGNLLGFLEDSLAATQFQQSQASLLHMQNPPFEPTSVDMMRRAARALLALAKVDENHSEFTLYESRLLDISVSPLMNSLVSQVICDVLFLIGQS

Where two headings read alike, the source gives them in different places. No constants are given. Whether binding was seen depends on the method and setting. In cells and extracts the contact can be indirect. Some results given as binding are weak or reduced against the parent protein; the word gives no strength. For some of these results: Tags and fused reporters may be left off the sequences shown.

Turning to “ARID1A protein (BAF250a), endogenous (from UniProt O14497-1 1-2285)”, the binding result in assay [1], in assay [2], in assay [3] and in assay [4] was “binds” in each case.

“Carbamoyl-phosphate synthetase 2, Aspartate transcarbamoylase, and Dihydroorotase (CAD), endogenous (from UniProt P27708 1-2225) (enzyme)”: the binding result in assay [5] and in assay [6] was “binds” throughout.

“SMARCA4 (also known as BRG1), endogenous (from UniProt P51532 1-1647)”: the binding entry in assay [5] and in assay [6] was “binds” in each case.

Regarding “V5-tagged C-terminal ARID1A (1759-2285) (from UniProt O14497 1759-2285) (domain or fragment)”, in assay [7], the binding result is on record as “binds”.

For “V5-tagged N-terminal ARID1A (1-1758) (from UniProt O14497 1-1758) (domain or fragment)”, in assay [7], the binding entry was “no binding”.

These data come from doi:10.1101/2020.10.12.331975.
